Patent US20110039693A1, “Pyrimidylmethyl Sulfonamide Compounds” (BASF SE, priority 2008, published 2011)
Some entries share one result that the patent states for a list of compounds. For at least one compound, name, drawing or mass did not settle the structure.

Columns and labels:
Puccinia recondita = experiment: Glasshouse: protective action against brown rust on wheat caused by Puccinia recondita; assay type: in vivo; conditions: 250 ppm, protective spray on wheat; untreated plants 90% infected
Phytophthora infestans [1] = assay type: in vivo; conditions: 250 ppm, protective spray on tomato plants; untreated plants 90% infected
Phytophthora infestans [2] = assay type: cell-based; conditions: 125 ppm; pea-juice medium; 7 days

Row | SMILES | infection (rust development on leaves) (Puccinia recondita) | infection (% diseased leaf area) (Phytophthora infestans [1]) | growth of the pathogen (Phytophthora infestans [2])
1 | COc1nccc(CNS(=O)(=O)c2ccc(Oc3ncc(C(F)(F)F)cc3Cl)cc2)n1 [Example I-1] | less than or equal to 20% |  | 
2 | O=S(=O)(NCc1ccnc(SC(F)(F)F)n1)c1ccc(Oc2ncc(C(F)(F)F)cc2Cl)cc1 [Example I-3] | less than or equal to 20% |  | 
3 | O=S(=O)(NCc1ccncn1)c1ccc(Oc2ncc(C(F)(F)F)cc2Cl)cc1 [Example I-4] | less than or equal to 20% |  | 
4 | CSc1nccc(CNS(=O)(=O)c2ccc(Oc3ncc(C(F)(F)F)cc3Cl)cc2)n1 [Example I-5] | less than or equal to 20% |  | 
5 | O=S(=O)(NCc1ccnc(OC(F)F)n1)c1ccc(Oc2ncc(C(F)(F)F)cc2Cl)cc1 [Example I-6] | less than or equal to 20% |  | 
6 | COc1nccc(CNS(=O)(=O)c2ccc(Oc3ccc(Br)cn3)cc2)n1 [Example I-7] |  | less than or equal to 15% | 
7 | COc1nccc(CNS(=O)(=O)c2ccc(Oc3ccc(Cl)cn3)cc2)n1 [Example I-8] | less than or equal to 20% | less than or equal to 15% | 
8 | COc1nccc(CNS(=O)(=O)c2ccc(Oc3ncc(Cl)cc3Cl)cc2)n1 [Example I-9] | less than or equal to 20% |  | 
9 | COc1nccc(CNS(=O)(=O)c2ccc(Oc3ncccc3C(F)(F)F)cc2)n1 [Example I-10] | less than or equal to 20% | less than or equal to 15% | 
10 | COc1nccc(CNS(=O)(=O)c2ccc(Oc3cc(C(F)(F)F)ccn3)cc2)n1 [Example I-11] | less than or equal to 20% | less than or equal to 15% | 
11 | COc1nccc(CNS(=O)(=O)c2ccc(Oc3ncc(Cl)cc3C(F)(F)F)cc2)n1 [Example I-12] | less than or equal to 20% |  | 
12 | COc1nccc(CNS(=O)(=O)c2ccc(Oc3ncc(C(F)(F)F)cc3C)cc2)n1 [Example I-13] |  | less than or equal to 15% | 
13 | COc1nccc(CNS(=O)(=O)c2ccc(Oc3cccc(C(F)(F)F)n3)cc2)n1 [Example I-16] | less than or equal to 20% | less than or equal to 15% | 
14 | COc1nccc(CNS(=O)(=O)c2ccc(Oc3ncc(C(F)(F)F)cc3Cl)c(C)c2)n1 [Example I-17, 4-(3-chloro-5-trifluoromethyl-pyridin-2-yloxy)-N-(2-methoxy-pyrimidin-4-ylmethyl)-3-methyl-benzenesulfonamide] | less than or equal to 20% | less than or equal to 15% | 
15 | COc1nccc(CNS(=O)(=O)c2ccc(Oc3ncc(C(F)(F)F)cc3Cl)cc2C)n1 [Example I-18] | less than or equal to 20% |  | 
16 | COc1nccc(CNS(=O)(=O)c2ccc(Oc3ncccc3C(F)(F)F)c(C)c2)n1 [Example I-19] | less than or equal to 20% | less than or equal to 15% | 
17 | COc1nccc(CNS(=O)(=O)c2ccc(Oc3ncccc3C(F)(F)F)cc2C)n1 [Example I-20] | less than or equal to 20% | less than or equal to 15% | 
18 | COc1nccc(CNS(=O)(=O)c2ccc(Oc3ccc(C(F)(F)F)cn3)c(C)c2)n1 [Example I-21] | less than or equal to 20% | less than or equal to 15% | 
19 | COc1nccc(CNS(=O)(=O)c2ccc(Oc3ccc(C(F)(F)F)c(Cl)n3)cc2)n1 [Example I-23] | less than or equal to 20% | less than or equal to 15% | 
20 | COc1nccc(CNS(=O)(=O)c2ccc(Oc3nc(Cl)c(C(F)(F)F)cc3Cl)cc2)n1 [Example I-24] | less than or equal to 20% | less than or equal to 15% | 

Row | SMILES | infection (rust development on leaves) (Puccinia recondita) | infection (% diseased leaf area) (Phytophthora infestans [1]) | growth of the pathogen (Phytophthora infestans [2])
21 | O=S(=O)(NCc1ccnc(C2CC2)n1)c1ccc(Oc2ncc(C(F)(F)F)cc2Cl)cc1 [Example I-25] | less than or equal to 20% |  | 
22 | O=S(=O)(NCc1ccnc(C2CC2)n1)c1ccc(Oc2ccc(C(F)(F)F)cn2)cc1 [Example I-26] | less than or equal to 20% |  | 
23 | O=S(=O)(NCc1ccnc(C2CC2)n1)c1ccc(Oc2ncccc2C(F)(F)F)cc1 [Example I-27] | less than or equal to 20% | less than or equal to 15% | at most 15%
24 | Cc1cc(CNS(=O)(=O)c2ccc(Oc3ncc(C(F)(F)F)cc3Cl)cc2)ncn1 [Example I-28] | less than or equal to 20% |  | 
25 | Cc1cc(CNS(=O)(=O)c2ccc(Oc3ccc(C(F)(F)F)cn3)cc2)ncn1 [Example I-29] | less than or equal to 20% |  | 
26 | Cc1cc(CNS(=O)(=O)c2ccc(Oc3ncccc3C(F)(F)F)cc2)nc(C2CC2)n1 [Example I-30] | less than or equal to 20% | less than or equal to 15% | 
27 | Cc1ncnc(CNS(=O)(=O)c2ccc(Oc3ccc(C(F)(F)F)cn3)cc2)c1C [Example I-32] | less than or equal to 20% | less than or equal to 15% | 
28 | Cc1nc(C)c(C)c(CNS(=O)(=O)c2ccc(Oc3ncc(C(F)(F)F)cc3Cl)cc2)n1 [Example I-34] | less than or equal to 20% | less than or equal to 15% | 
29 | Cc1nc(C)c(C)c(CNS(=O)(=O)c2ccc(Oc3ccc(C(F)(F)F)cn3)cc2)n1 [Example I-35] | less than or equal to 20% |  | 
30 | Cc1nc(C)c(C)c(CNS(=O)(=O)c2ccc(Oc3ncccc3C(F)(F)F)cc2)n1 [Example I-36] | less than or equal to 20% | less than or equal to 15% | 
31 | COc1nc(C)cc(CNS(=O)(=O)c2ccc(Oc3ccc(C(F)(F)F)cn3)cc2)n1 [Example I-38] | less than or equal to 20% | less than or equal to 15% | 
32 | COc1nc(C)cc(CNS(=O)(=O)c2ccc(Oc3ncccc3C(F)(F)F)cc2)n1 [Example I-39] |  | less than or equal to 15% | 
33 | COc1nccc(CNS(=O)(=O)c2ccc(Oc3ccc(C(F)(F)F)cn3)c(Cl)c2)n1 [Example I-76] |  |  | at most 15%
34 | COc1nccc(CNS(=O)(=O)c2ccc(Oc3ccnc4ccccc34)cc2)n1 [Example I-111] |  |  | at most 15%
35 | COc1nccc(CNS(=O)(=O)c2ccc(Sc3ncc(C(F)(F)F)cc3Cl)cc2)n1 [Example I-128] |  |  | at most 15%
36 | COc1nccc(CNS(=O)(=O)c2ccc(OCc3cc(C)nn3C)cc2)n1 [Example I-130] |  |  | at most 15%
37 | COc1nccc(CNS(=O)(=O)c2ccc(OCc3cc(C4CCCCC4)no3)cc2)n1 [Example I-144] |  |  | at most 15%
38 | COc1nccc(CNS(=O)(=O)c2ccc(OCc3nc4ccccc4s3)cc2)n1 [Example I-149] |  |  | at most 15%
39 | COc1nccc(CNS(=O)(=O)c2ccc(Oc3ccc(Br)nc3)nn2)n1 [Example I-171] |  |  | at most 15%
